Test results published in the supplement of paper PMC5949888.
Most values lie at the floor of the assay. Slopes are relative: functional sequences can read slightly below zero.

Tested on: Saccharomyces cerevisiae PS128 hsf1 delta, HSF1(1-493) fusion
Test: growth estimate (transactivation domain function in HSF1 fusion, heat-shock survival) (a.u. (slope of normalised read count over time)); higher = stronger growth at 37°C, i.e. more transactivation activity
Details: library: random library

Substance | growth estimate
RPRSP | < -0.25
VDFNPDRSVDNSLRSPDSPC | < -0.25
LEMIPKGSLIVANVRSGP | < -0.25
PVTSP | < -0.25
ITPRLTTRVTWLGYGHSRRV | < -0.25
TAA | < -0.25
IGLRRCTTGVVPPGY | < -0.25
RSSVTLCRKSALLSSQVTEQ | < -0.25
IVYGGSVPGNCSALRVPSAA | < -0.25
SVENGWG | < -0.25
PVDIGNGRLIEKGACI | < -0.25
SDWHIW | < -0.25
NVDRPQT | < -0.25
GSVMPLNPAFLAPPLQRQL | < -0.25
PYINCSM | < -0.25
VRACAF | < -0.25
APQSVDY | < -0.25
RMISAMP | < -0.25
CICRQAQRRCLRETAMGEHT | < -0.25
PGIY | -0.243
SKFKWSHVVKGHRLVCSFIV | < -0.25
QNHYASTRWSYR | < -0.25
LPFLVFRITKVSARGQSVRG | -0.237
HLLTTRLLSCVLRRNVDA | < -0.25
NRVLLN | -0.243

Substance | growth estimate
PAVRRRRETVLH | < -0.25
VRKSASFLGPTMLRGPLTRE | < -0.25
RHLGRECAVRSQRGRRFPRV | < -0.25
CLCPRDHQNFI | < -0.25
QTSTCTENLARVIYHSVSWL | < -0.25
VDSAA | < -0.25
LSFTKCRSRVTGLANSYLHR | < -0.25
LIVEVWGGHEPIRMRPALQL | < -0.25
HYSDIKSQDSGVVLGVGVLV | < -0.25
SSAGSGMRDFLKSLYGNRAL | -0.241
CPGSNWTLSG | < -0.25
RAVCI | < -0.25
QFSSQRLAGRS | < -0.25
GRSRVGKRTAEKIRNAGAGP | < -0.25
LKFRLVVC | < -0.25
FRSLKSIGEISRLASELSVP | < -0.25
MARGLQPGPGTAFRRHEILS | < -0.25
GPGDANAFSLAVWWSMEDGP | 0.182
LLGLRDGIGRRARVNDRETL | < -0.25
EQALVI | < -0.25
PFRG | < -0.25
SCGGVN | < -0.25
DAYRFGLHTASSVRGSENEE | < -0.25
YLDRQCKQTHPRGAVT | < -0.25
GFIGTIQRPPLETHPK | < -0.25

Some values from the results shown.
Entry for GSVMPLNPAFLAPPLQRQL under growth estimate: < -0.25
Entry for HYSDIKSQDSGVVLGVGVLV under growth estimate: < -0.25
Entry for HLLTTRLLSCVLRRNVDA under growth estimate: < -0.25
Entry for GFIGTIQRPPLETHPK under growth estimate: < -0.25
Entry for RPRSP under growth estimate: < -0.25
Entry for NRVLLN under growth estimate: -0.243

(further entries)

Substance | growth estimate
GDALAAFCLLCKWSSDNRRA | < -0.25
GDETVCTVDRPRFSMAVRGL | < -0.25
GGSLGSEPAVSCGAYGARDY | < -0.25
RMTGTLTNPDKRGDVFTARL | < -0.25
QGM | < -0.25
ANYTNGEVMVGYGCYLA | < -0.25
LRAV | < -0.25
FTGGTMRGRFSV | < -0.25
TELH | < -0.25
ASRATKWRPRGRPRDAGRRG | < -0.25
WDRAVSAAVRTSTSRRTHLG | < -0.25
DRGEDGRVVRSTVLARSRGA | < -0.25
CSLFVLT | < -0.25
SNQ | < -0.25
GWVVSQGRGLCAEHSGGVCR | < -0.25
HTVCLLAMGLLPISIVFNL | < -0.25
SGGTFNSGTSRP | < -0.25
FPSRLFKCLSVPGFCRVAIT | < -0.25
HSSGATSLVPRCAAA | < -0.25
GRIGMTLVECKRS | < -0.25
KYSAPTRWHPKLPRFNNAPS | < -0.25
HPPTSSGSSQWVHLV | < -0.25
NSRFSRAAHSYRAQIMLCGE | < -0.25
SIFMESW | < -0.25
ISATVVRKRAGGLAQYYNLP | -0.243

Substance | growth estimate
IESPYGSFLLIGICREGNIA | < -0.25
EAQTPRFPGTKWGVFC | -0.248
HSTSALLYHTWSGAVGGCTP | < -0.25
VVSQGAWDRQPFICT | < -0.25
GLVRIG | < -0.25
IWTAFRGGS | < -0.25
RGTPKGARSLVCVVTGHSA | < -0.25
KLRYGDCPAPRYLPRDLI | < -0.25
TYVHKLYRDSGSMEQRHPEL | < -0.25
GGGSDVTSALEFLDRLYSLW | < -0.25
ESVQTA | < -0.25
KAAMTSRTVRPDGNVQVPLL | < -0.25
SGVARELARA | < -0.25
PGSARSEVCRAGN | < -0.25
AVSRILCVSERNAFAWASN | < -0.25
ISPRHGDTATLNCPGDG | < -0.25
CSFFLTGAVLHGYAGPIVSA | -0.243
GIAG | < -0.25
SSRRERRASSIKRNERLSSA | < -0.25
DPDSALRIYRFGHIRGAGAV | < -0.25
FHPICAAAVRTR | < -0.25
SAHSACGLGRLVGQVYAYPY | < -0.25
PRQ | -0.116
CTIRPSRA | < -0.25
RPKPFTFTPGDPVHRFR | < -0.25

Substance | growth estimate
LPLCVSALRHK | < -0.25
HCGMRA | < -0.25
QILGGVGAL | < -0.25
PLSCICHNTVRELNFSRSPA | < -0.25
SDETETPRSNNC | < -0.25
CFPGSCRQIGPPRGGSNGCP | < -0.25
PWVQWSGDPQSSLGKNFLTG | < -0.25
QQESPAIRFDVSIGRNELS | < -0.25
RIKGRP | < -0.25
ILTKCVQCPLERTRHKPLRA | < -0.25
KGPHSESYPVSGPTDNFRRH | < -0.25
RILMGSLNSILGSITSLLGP | < -0.25
APWLLSPGMRTSSKGLLMQG | < -0.25
KSGHLLRGLSGNIGTWKWNT | -0.193
NWGHPCHRYIFVTDPL | < -0.25
DVKAVICVYEAIDDLSCSGA | -0.239
VSLRSIA | < -0.25
VLRPAKERAWWGKCRRTVL | < -0.25
ISMVV | < -0.25
YVEHGFA | -0.206
SRFGVTVSVRLPGTGNSVVI | < -0.25
SLGFINF | < -0.25
TVGSFPGDAADSDARAHR | < -0.25
EGL | < -0.25
TKILP | < -0.25

Part of the list above, set out differently.
QGM
  growth estimate: < -0.25
ANYTNGEVMVGYGCYLA
  growth estimate: < -0.25
LRAV
  growth estimate: < -0.25
FTGGTMRGRFSV
  growth estimate: < -0.25

Additional entries:

Substance | growth estimate
TRGPLSGGLSTMLRVWELSG | < -0.25
HNVPWVWNTSGFAN | < -0.25
KVINR | < -0.25
YEP | < -0.25
FKENRT | -0.245
PQRGKSPVLTVRREHVEDRL | < -0.25
RGIDMRGNETTQKLRPPSRE | < -0.25
DRRYFRTGPRFRALRCLY | < -0.25
NRAAMTLTHSLVDR | < -0.25
WAVRWCADRPILPILARLVF | < -0.25
WDVRRAAGYQEDRTCRSDDA | < -0.25
GIIPT | < -0.25
FCVFEGR | < -0.25
WLAISIRNTYCFFDPRAKAR | < -0.25
TSEMEINGVNRRIASWCHGT | < -0.25
GGCSSAGWSA | < -0.25
LWELI | < -0.25
ARALMVLEEGLAAGSQHPLV | < -0.25
PIHYGQAL | < -0.25
AVLPEGHV | < -0.25
RISAILNRTVG | < -0.25
STQSVGRQSRPLALSTQ | -0.246
DCSAKHESMRNQVYKGSWCH | < -0.25
AGCARAVLFARRNQVSEDDT | < -0.25
QAGLIRRQAIVRAATLG | < -0.25

Substance | growth estimate
VTAPHHNSQKHGKILWRQAE | < -0.25
SLRSCKCSRAPQRYRVKLYE | < -0.25
TDWL | < -0.25
LRSRQSGLT | < -0.25
SKRFALVNSQSDVIL | < -0.25
PGTGGYFGAAVPEQASTLWC | < -0.25
SILVGYVTLYVAYERRNNRR | < -0.25
TNAPSLACYGSSHSTIRSSG | < -0.25
STLEYRGTDTR | < -0.25
KSDALSIDRPFGEFLRIKAL | < -0.25
TDGLCVGHNGGFNLEFTLLP | 8.16
SRVILGPPADRGASYGEIGR | < -0.25
VVCVTACRIA | < -0.25
RQCEARRDMCLVMIRGIVFA | < -0.25
VRCGVRRLCAVLSSLQCMRL | < -0.25
WYHGKGL | < -0.25
AHCIQVRAPGI | < -0.253
PGAIRLREPRSSHAC | < -0.25
CQR | < -0.25
NLNIRKGTVG | < -0.25
LPAARSMG | < -0.25
PIWTWFFGR | < -0.25
YFPYINLLLAARYLRFRVRT | -0.231
LGFFGNFMEVRPHSGDITRK | 0.417
LKPNRSSPGQMPFYI | < -0.25

Substance | growth estimate
EPSIVSPEGFQARDNYTFMR | < -0.25
VSKGYNGLPSLKAM | < -0.25
QYGMRCTREKDCE | < -0.25
GSCISVAQRYGRRSGLTRST | < -0.25
VGFKSAFVVVLPPIGVMTDL | -0.117
VRCSIDGRLLGTPI | < -0.25
RIGSSARVGPTATVETDVFW | < -0.25
RSLLAQVRRHCRWCQEYRRL | < -0.25
RVPSFRYGRMRPSRPRDGSP | < -0.25
RWKFRALS | < -0.25
PVGGNRGR | < -0.25
RVLDTIIGDTTRDKTVH | < -0.25
CTGASRVIISDSSTRPSVSR | < -0.25
GVPNDRCCVQRIRYNHP | < -0.25
RWERPVRFSFPGQDTVINC | < -0.25
PISVSVCNVPPNDAREGSRL | < -0.25
LVHQYATGG | < -0.25
SGFNLS | < -0.25
PMELQSLRDVRESIQP | < -0.25
EIYTAQNVSLCALRHRMCEP | < -0.25
MAIGHSFICRPPIKRC | < -0.25
SGLQWDRRKISGKRARGPYA | < -0.25
DEGGLSIGIIR | < -0.25
SSNGIPDSVT | < -0.25
LRFIWYILIHRKGSEKMRDR | < -0.25
